The targets with a hit were mostly taken out for another list; the other results follow. The data scatter; read single values as rough. The list shows a part of the results, in another mix than the full data.
Compound: COC(=O)/C=C/c1ccccc1 [methyl cinnamate]
Assay: log2 ratio of iodoacetamide-alkyne labeling of the cysteine site, DMSO over compound (competition); higher = stronger covalent engagement of the cysteine by the compound, active = 1 or more
Settings: 500 µM; treatment time 1 h; system: HEK293T cell lysate
Procedure, shortened: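 HEK293T lysate (2 mg/mL) was treated with DMSO or electrophile (500 µM, 1 h, ambient temperature), then iodoacetamide alkyne (1 h), clicked to sCIP-TMT reagents, pooled, trypsin-digested overnight at 37 °C, streptavidin-enriched and acid-eluted. Peptides were run on Orbitrap Eclipse LC-MS/MS with FAIMS and quantified in FragPipe. The log2 competition ratio per cysteine is mean control-channel over mean compound-channel reporter intensity. Duplicate channels and three replicates were used, and cysteines quantified in only one replicate were excluded.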

Chains of the proteins cited; added tags and fusions are not shown. Lines headed by an entry give the natural chain unless they say otherwise; changes in a name come on top.
UniProt O00151: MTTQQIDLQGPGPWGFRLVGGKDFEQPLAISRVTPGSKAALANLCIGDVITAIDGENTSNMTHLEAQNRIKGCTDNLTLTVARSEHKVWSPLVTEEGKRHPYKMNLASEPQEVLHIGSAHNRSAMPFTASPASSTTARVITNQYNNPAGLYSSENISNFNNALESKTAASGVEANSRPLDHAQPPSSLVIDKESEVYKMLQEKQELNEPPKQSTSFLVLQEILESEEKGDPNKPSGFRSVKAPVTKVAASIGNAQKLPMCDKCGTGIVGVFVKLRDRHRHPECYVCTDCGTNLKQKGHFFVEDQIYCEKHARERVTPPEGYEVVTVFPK
UniProt O15355: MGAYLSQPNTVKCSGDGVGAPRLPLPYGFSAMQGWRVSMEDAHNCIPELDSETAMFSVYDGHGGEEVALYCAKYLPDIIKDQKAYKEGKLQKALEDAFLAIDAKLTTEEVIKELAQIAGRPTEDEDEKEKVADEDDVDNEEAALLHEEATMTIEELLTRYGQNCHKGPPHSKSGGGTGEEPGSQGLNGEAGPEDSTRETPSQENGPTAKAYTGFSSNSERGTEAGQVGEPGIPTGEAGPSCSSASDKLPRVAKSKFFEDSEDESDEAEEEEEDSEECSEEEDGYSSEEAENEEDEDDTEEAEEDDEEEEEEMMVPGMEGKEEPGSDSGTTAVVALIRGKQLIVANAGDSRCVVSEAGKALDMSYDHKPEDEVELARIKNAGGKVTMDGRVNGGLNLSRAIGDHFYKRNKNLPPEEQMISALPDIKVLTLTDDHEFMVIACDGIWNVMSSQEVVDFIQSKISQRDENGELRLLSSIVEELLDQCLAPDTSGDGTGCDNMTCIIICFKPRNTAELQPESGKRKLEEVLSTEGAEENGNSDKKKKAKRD
UniProt O00429, whole entry, looked up: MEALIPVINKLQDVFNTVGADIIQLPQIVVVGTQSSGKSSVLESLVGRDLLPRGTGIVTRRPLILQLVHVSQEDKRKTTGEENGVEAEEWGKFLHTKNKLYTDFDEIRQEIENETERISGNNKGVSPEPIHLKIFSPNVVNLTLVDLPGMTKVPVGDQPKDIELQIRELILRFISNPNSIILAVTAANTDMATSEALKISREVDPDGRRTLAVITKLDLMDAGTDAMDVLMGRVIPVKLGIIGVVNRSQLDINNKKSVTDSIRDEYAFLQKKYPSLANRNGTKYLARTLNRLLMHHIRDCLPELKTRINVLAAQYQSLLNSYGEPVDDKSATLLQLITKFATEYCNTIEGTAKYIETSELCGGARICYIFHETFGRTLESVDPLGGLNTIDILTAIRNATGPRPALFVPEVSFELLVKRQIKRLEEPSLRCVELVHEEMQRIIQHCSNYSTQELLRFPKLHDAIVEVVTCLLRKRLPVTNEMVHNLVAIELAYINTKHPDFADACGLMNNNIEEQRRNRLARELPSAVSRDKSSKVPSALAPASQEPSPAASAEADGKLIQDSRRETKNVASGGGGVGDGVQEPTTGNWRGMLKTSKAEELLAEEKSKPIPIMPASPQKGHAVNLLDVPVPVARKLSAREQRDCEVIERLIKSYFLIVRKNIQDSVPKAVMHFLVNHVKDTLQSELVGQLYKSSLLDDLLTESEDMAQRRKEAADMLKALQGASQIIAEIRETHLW
UniProt O00471: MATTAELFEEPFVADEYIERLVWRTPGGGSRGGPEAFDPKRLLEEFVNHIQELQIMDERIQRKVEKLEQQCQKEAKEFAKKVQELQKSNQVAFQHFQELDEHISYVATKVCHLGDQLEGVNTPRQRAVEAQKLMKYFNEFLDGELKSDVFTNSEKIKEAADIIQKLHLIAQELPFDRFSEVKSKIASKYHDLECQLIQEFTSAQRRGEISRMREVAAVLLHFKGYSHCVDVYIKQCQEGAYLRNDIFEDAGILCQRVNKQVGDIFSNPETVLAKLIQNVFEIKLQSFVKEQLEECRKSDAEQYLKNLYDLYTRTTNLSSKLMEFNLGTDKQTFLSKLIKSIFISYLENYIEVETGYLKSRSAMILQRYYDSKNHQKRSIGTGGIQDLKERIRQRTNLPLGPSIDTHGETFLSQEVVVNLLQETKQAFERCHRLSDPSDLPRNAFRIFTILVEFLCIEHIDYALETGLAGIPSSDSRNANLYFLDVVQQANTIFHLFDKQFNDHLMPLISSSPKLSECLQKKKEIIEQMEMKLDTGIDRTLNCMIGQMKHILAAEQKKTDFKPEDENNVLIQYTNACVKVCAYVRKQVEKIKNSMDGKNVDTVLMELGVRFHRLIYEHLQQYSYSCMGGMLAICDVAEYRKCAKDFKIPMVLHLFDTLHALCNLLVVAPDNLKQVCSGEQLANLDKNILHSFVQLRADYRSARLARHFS
UniProt O00178: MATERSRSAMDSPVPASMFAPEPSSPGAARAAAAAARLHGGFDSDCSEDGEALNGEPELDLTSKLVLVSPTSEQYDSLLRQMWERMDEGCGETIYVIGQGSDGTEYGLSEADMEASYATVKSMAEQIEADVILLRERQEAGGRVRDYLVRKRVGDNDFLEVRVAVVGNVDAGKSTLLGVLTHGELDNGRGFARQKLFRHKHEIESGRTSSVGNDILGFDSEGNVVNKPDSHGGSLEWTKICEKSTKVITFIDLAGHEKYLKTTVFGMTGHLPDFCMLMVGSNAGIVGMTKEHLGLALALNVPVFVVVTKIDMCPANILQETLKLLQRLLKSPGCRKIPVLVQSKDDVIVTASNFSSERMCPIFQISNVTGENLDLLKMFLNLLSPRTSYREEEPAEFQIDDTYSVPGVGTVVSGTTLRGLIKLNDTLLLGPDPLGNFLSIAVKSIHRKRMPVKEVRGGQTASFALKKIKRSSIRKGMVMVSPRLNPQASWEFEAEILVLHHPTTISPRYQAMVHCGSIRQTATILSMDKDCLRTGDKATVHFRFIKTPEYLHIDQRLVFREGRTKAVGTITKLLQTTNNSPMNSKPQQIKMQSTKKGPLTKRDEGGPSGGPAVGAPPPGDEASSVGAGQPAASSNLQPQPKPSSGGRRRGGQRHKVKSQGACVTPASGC
UniProt O14497, whole entry, looked up: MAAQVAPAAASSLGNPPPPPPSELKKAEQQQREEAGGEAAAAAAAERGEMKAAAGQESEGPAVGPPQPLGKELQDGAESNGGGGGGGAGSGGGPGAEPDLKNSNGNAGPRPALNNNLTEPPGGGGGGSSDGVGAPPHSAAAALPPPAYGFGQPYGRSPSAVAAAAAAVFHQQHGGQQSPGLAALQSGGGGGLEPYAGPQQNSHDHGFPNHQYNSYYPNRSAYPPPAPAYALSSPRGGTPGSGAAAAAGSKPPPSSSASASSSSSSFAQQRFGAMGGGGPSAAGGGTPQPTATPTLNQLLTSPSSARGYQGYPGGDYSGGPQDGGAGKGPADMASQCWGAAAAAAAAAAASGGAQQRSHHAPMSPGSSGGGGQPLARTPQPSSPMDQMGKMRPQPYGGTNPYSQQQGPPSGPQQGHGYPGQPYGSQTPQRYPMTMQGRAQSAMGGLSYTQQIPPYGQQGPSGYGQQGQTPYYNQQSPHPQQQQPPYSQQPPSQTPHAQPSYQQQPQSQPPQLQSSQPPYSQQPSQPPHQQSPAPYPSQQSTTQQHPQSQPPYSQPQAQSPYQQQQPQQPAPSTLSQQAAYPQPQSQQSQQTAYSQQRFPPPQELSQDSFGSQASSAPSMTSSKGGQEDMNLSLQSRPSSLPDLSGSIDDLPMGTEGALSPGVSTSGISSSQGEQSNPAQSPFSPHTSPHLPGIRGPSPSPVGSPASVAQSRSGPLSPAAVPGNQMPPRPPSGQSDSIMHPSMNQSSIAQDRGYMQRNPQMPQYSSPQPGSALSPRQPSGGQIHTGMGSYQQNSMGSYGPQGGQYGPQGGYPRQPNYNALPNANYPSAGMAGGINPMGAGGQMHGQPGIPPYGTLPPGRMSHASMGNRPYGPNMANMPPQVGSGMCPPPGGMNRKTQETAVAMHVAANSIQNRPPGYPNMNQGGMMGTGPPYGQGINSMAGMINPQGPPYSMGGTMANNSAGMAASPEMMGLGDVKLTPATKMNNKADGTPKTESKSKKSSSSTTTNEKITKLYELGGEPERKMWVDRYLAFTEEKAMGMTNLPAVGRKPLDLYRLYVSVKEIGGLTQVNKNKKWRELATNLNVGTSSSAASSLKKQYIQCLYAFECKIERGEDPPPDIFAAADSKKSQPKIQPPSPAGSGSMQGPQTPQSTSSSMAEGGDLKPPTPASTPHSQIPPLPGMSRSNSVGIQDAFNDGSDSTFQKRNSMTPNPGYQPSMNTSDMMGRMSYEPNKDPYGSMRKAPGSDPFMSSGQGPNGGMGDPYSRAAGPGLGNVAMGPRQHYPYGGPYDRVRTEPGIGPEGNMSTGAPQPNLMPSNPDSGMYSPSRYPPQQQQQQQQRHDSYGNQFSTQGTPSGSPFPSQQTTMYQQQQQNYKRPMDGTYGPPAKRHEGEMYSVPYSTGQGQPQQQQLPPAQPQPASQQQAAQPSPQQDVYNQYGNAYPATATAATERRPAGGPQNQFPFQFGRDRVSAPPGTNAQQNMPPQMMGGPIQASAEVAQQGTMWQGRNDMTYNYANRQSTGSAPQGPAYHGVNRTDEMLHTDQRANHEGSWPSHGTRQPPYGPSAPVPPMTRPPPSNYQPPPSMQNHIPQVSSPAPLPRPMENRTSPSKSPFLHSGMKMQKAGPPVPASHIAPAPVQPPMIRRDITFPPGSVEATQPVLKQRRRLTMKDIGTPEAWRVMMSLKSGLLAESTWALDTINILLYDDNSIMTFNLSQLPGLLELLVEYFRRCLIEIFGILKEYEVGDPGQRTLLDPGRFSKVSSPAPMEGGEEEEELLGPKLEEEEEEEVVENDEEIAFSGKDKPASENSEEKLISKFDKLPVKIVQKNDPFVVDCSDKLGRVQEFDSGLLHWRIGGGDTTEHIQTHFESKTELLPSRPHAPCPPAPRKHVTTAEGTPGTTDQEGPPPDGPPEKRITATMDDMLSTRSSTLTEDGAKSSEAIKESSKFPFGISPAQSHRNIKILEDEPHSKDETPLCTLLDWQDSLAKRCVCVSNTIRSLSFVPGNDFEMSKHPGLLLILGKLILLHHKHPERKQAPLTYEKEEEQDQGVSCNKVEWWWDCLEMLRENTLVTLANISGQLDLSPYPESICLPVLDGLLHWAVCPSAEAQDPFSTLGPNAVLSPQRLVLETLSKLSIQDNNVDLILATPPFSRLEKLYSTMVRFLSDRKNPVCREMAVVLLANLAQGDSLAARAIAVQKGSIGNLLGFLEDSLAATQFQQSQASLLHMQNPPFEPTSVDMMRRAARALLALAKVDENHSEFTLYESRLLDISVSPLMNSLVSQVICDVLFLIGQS
UniProt O14519: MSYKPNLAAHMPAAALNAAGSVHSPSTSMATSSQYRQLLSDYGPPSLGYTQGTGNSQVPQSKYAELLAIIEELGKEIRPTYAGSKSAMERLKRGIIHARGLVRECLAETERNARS
UniProt O14979: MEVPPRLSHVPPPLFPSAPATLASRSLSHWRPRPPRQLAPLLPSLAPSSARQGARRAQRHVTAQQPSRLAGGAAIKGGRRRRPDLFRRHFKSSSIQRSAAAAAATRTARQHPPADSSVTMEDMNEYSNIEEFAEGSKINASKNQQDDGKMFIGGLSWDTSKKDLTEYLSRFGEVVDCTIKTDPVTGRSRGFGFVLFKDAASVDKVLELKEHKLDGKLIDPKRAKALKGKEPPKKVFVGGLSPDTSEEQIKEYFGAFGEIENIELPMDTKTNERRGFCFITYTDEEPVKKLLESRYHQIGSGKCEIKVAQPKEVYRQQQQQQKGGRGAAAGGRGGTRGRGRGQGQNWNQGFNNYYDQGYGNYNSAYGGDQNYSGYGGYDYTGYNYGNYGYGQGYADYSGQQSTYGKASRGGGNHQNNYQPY
UniProt O14929: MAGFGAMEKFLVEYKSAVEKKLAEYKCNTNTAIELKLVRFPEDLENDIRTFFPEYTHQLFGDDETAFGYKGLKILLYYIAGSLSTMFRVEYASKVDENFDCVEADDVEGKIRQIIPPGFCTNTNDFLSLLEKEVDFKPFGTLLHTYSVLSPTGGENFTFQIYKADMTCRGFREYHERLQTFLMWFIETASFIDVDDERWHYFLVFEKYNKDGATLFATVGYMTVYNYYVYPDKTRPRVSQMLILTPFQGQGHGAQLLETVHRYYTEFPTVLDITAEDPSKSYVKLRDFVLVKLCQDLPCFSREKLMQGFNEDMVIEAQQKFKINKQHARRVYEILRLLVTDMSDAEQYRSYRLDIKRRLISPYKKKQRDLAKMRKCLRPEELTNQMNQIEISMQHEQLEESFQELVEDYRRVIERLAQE

log2 ratio of iodoacetamide-alkyne labeling, inactive:
PDLIM1 C260 (UniProt O00151) 0.105, PPM1G C351 (UniProt O15355) 0.596, PDHX C307 (UniProt O00330) 0.179, KMT2D C5314 (UniProt O14686) 0.289, POLR3A C960 (UniProt O14802) 0.478, DNM1L C505 (UniProt O00429) -0.141, EXOC5 C194 (UniProt O00471) 0.21, GTPBP1 C669 (UniProt O00178) 0.467, ARHGEF11 C1500 (UniProt O15085) 0.178, POM121C C438 (UniProt A8CG34) 0.0455, ARID1A C1968 (UniProt O14497) 0.167, CDK2AP1 C105 (UniProt O14519) 0.294, EXOC5 C111 (UniProt O00471) 0.164, UniProt O14979_C277 -0.075, HAT1 C120 (UniProt O14929) 0.402, CLIC1 C191 (UniProt O00299) 0.105

Source: the supplement of paper PMC11006884
